Reference: publication doi:10.1101/2023.09.18.558326
Results are given in words; binding and its absence hold for the method and conditions named. Where a sequence is shown, tags or fusion partners need not be part of it. Blank lines part the entries; values can stand above or below the binder they belong to.

Molecular target: BD-CFH1ΔF (GAL4 DNA-binding domain fused to CFH1ΔF) (Arabidopsis)
Test: two-hybrid

- binding: no binding
B1: GAL4 activation domain (AD) fused to PIF5 (protein, UniProt Q84LH8 1-444)
chain: MEQVFADWNFEDNFHMSTNKRSIRPEDELVELLWRDGQVVLQSQARREPSVQVQTHKQETLRKPNNIFLDNQETVQKPNYAALDDQETVSWIQYPPDDVIDPFESEFSSHFFSSIDHLGGPEKPRTIEETVKHEAQAMAPPKFRSSVITVGPSHCGSNQSTNIHQATTLPVSMSDRSKNVEERLDTSSGGSSGCSYGRNNKETVSGTSVTIDRKRKHVMDADQESVSQSDIGLTSTDDQTMGNKSSQRSGSTRRSRAAEVHNLSERRRRDRINERMKALQELIPHCSRTDKASILDEAIDYLKSLQMQLQVMWMGSGMAAAAAAAASPMMFPGVQSSPYINQMAMQSQMQLSQFPVMNRSAPQNHPGLVCQNPVQLQLQAQNQILSEQLARYMGGIPQMPPAGNQMQTVQQQPADMLGFGSPAGPQSQLSAPATTDSLHMGKIG

- binding: no binding
B2: GAL4 activation domain (AD) fused to PIF1 (protein, UniProt Q8GZM7 1-478)
chain: MHHFVPDFDTDDDYVNNHNSSLNHLPRKSITTMGEDDDLMELLWQNGQVVVQNQRLHTKKPSSSPPKLLPSMDPQQQPSSDQNLFIQEDEMTSWLHYPLRDDDFCSDLLFSAAPTATATATVSQVTAARPPVSSTNESRPPVRNFMNFSRLRGDFNNGRGGESGPLLSKAVVRESTQVSPSATPSAAASESGLTRRTDGTDSSAVAGGGAYNRKGKAVAMTAPAIEITGTSSSVVSKSEIEPEKTNVDDRKRKEREATTTDETESRSEETKQARVSTTSTKRSRAAEVHNLSERKRRDRINERMKALQELIPRCNKSDKASMLDEAIEYMKSLQLQIQMMSMGCGMMPMMYPGMQQYMPHMAMGMGMNQPIPPPSFMPFPNMLAAQRPLPTQTHMAGSGPQYPVHASDPSRVFVPNQQYDPTSGQPQYPAGYTDPYQQFRGLHPTQPPQFQNQATSYPSSSRVSSSKESEDHGNHTTG
